Laboratory results taken from US20230105029A1.

B1: chimeric antibody B8G11F2B7G5E8 (antibody, human IgG4 S228P, kappa, V domains shown)
VH: EVQLQQSGADLVRPGASVKLSCTASGFNIKDTYMHWVKQRPEQGLEWVGRIDPTNGYTIYASKFQGKATITADTSSNTAYMQLSSLTSGDTAVYHCVSRRPWFAYWGQGTLVTVSA
VL: DILMTQTPLSLPVSLGAQASISCRSSQSIVHSNGNTYLEWYLQKPGQSPKLLIYKVTNRFSGVPDRFSGSGSGTDFTLKISRVEAEDLGIYYCFQGSHVPYTFGGGTKLEIKR
B2: huB8G11F2B7G5E8-V2 (antibody, human IgG4 S228P, kappa, V domains shown)
VH: EVQLVQSGAEVKKPGATVKISCKVSGFNIKDTYMHWVKQAPGKGLEWVGRIDPTNGYTIYASKFQGKATITADTSSNTAYMELSSLRSEDTAVYHCVSRRPWFAYWGQGTLVTVSS
VL: B1 VL with L3V, P12S, S14T, L15P, A17Q, Q18P, K50Q, L88V, I90V, G105Q
B3: huB8G11F2B7G5E8-V14 (antibody, human IgG4 S228P, kappa, V domains shown)
VH: B2 VH with V48M
VL: B1 VL with L3V, P12S, S14T, L15P, A17Q, Q18P, K50Q, L88V, I90V, G105Q
B4: huB8G11F2B7G5E8-V4 (antibody, human IgG4 S228P, kappa, V domains shown)
VH: B2 VH with V24A, V48M
VL: B1 VL with L3V, P12S, S14T, L15P, A17Q, Q18P, K50Q, L88V, I90V, G105Q
B5: chimeric antibody C2C1A1A1 (antibody, human IgG4 S228P, kappa, V domains shown)
VH: EVQLVESGGGLVQPGGSLKLSCAASGFTFSTYGMSWVRQTPDKRLELVATINSNGGSTSYPDSVKGRFTISRDNAKNTLYLQMSSLKSEDTAMFYCARFFRFRNAMDYWGQGTSVTVSS
VL: DIQMTQSPASLSASVGETVTITCRTSENIYSYLAWYQQKQGKSPQFLVYNAKTLAEGVPSRFSGSGSGTQFSLNINSLQSEDFGSYYCQHYYGPPTWTFGGGTKLEIKR
B6: huC2C1A1A1-V14 (antibody, human IgG4 S228P, kappa, V domains shown)
VH: EVQLVESGGGLVQPGGSLRLSCAASGFTFSTYGMSWVRQAPGKGLVWVATINSNGGSTSYPDSVKGRFTISRDNAKNTLYLQMNSLRAEDTAVYYCARFFRFRNAMDYWGQGTLVTVSS
VL: DIQMTQSPSSLSASVGQRVTITCRTSENIYSYLAWYQQKQGKPPRFLIYNAKTLAEGVPSRFSGSGSGTEFTLTITSLQAEDFGVYYCQHYYGPPTWTFGPGTKLEIKR

target: marmoset monkey IL4Rα-his protein (marmoset monkey); assay: SPR (Biacore), antibody captured, cal-IL4Rα-his flowed

binding	Binder
binds	B1
binds	B2
binds	B3
binds	B4
binds	B5
binds	B6

Where a chain is given by its changes, count along the chain named. No constants are given. Whether binding was seen depends on the method and setting. A result given as binding can be weak or reduced; the word gives no strength.
